Assay results: patent US8796282B2, “Method of treating dermatological disorders” (Case Western Reserve University, priority 2007, dated 2014)
Some of these results come from one statement about several compounds together. Some compounds share one range, which may span the group rather than tell each member.

System: PEX16 gene expression
Assay: PEX16 gene expression in HaCaT keratinocytes treated with PPAR agonists, real-time PCR
Type: cell-based, human
Settings: HaCaT cells, 1 μM and 5 μM in 0.1% DMSO, 48 hours
Description: HaCaT keratinocytes were treated with vehicle alone (0.1% DMSO) or with specific agonists (1 μM and 5 μM in 0.1% DMSO) of PPARγ-Ciglitazone (Cig), Rosiglitazone (Rosi), Pioglitazone (Pio) and Troglitazone (Tro), PPARα-WY-14363 and PPARδ-GW50516. After 48 hours, PEX16 gene expression was measured by real-time PCR.
We directly assessed the role of PPARγ in modulating peroxisomal gene expression by growing HaCat cells (human keratinocyte cell line) in the presence of PPAR agonists (1 μM and 5 μM concentrations in 0.1% DMSO) and monitoring gene expression by real-time PCR (FIG. 5b). The agonists tested were Ciglitazone (Cig), Rosiglitazone (Rosi), Pioglitazone (Pio) and Troglitazone (Tro) specific for PPARγ, WY-14363 specific for PPARα and GW50516 specific for PPARδ. […] We also examined whether expression of the PEX3 gene is modulated by the PPAR agonist Pioglitazone (Pio) in cultured outer root sheath keratinocytes. Cells were grown in the presence or absence of Pio and PEX3 gene expression was monitored by real-time PCR.
Quantitative real-time RT-PCR. FAM labeled PCR primers and TaqMan hydrolysis probes for all target genes and 18S rRNA were purchased from Perkin-Elmer Applied Biosystems (Foster City, Calif.). Real-time PCR was performed on an ABI Prism 7700 Sequence Detection System (PE Biosystems) according to the recommendation of the manufacturer. The target gene expression in LPP and control samples was quantitated by the comparative CT method as described in the ABI Prism 7700 Sequence Detection System manual (PE Biosystems).
Effect of PPARg agonists and antagonists on PEXgenes. Human Hair Follicle Outer Root Sheath Cells (ORS cells) were obtained from ScienCell™ (San Diego, Calif.) and grown in Mesenchymal Stem Cell Medium (MSCM) consisting of 500 ml of basal medium, 25 ml of fetal bovine serum, 5 ml of mesenchymal stem cell growth supplement and 5 ml of penicillin/streptomycin solution. HaCaT cells were cultured in Dulbecco's modified Eagle's medium containing 10% fetal bovine serum under 5% CO2 at 37° C. The different PPAR agonists were added in triplicate in dimethylsulfoxide (<0.1% by volume) for 48 hours to evaluate their effects on PEX gene expression by real-time PCR.

CC1(COc2ccc(CC3SC(=O)NC3=O)cc2)CCCCC1 (stereo not shown) [Ciglitazone, 5-[4-[(1-methylcyclohexyl)methoxy]benzyl]thiazolidine-2,4-dione]
increase in PEX gene expression (PEX16): 2-10 fold

CN(CCOc1ccc(CC2SC(=O)NC2=O)cc1)c1ccccn1 (stereo not shown) [Rosiglitazone, 5-[4-[2-(N-methyl-N-(2-pyridyl)amino]ethoxy]benzyl]thiazolidine-2,4-dione]
increase in PEX gene expression (PEX16): 2-10 fold

CCc1ccc(CCOc2ccc(CC3SC(=O)NC3=O)cc2)nc1 (stereo not shown) [Pioglitazone, 5-[4-[2-(5-ethylpyridin-2-yl)ethoxyl]benzyl]thiazolidine-2,4-dione]
increase in PEX gene expression (PEX16): 2-10 fold

Cc1c(C)c2c(c(C)c1O)CCC(C)(COc1ccc(CC3SC(=O)NC3=O)cc1)O2 (single isomer, unassigned; (+)) [Troglitazone, (+)-5[[4-[(3,4-dihydro-6-hydroxy-2,5,7,8-tetramethyl-2H-1-benzopyran-2-yl)methoxy]phenyl]methyl]-2,4-thiazolidinedione]
increase in PEX gene expression (PEX16): 2-10 fold
